From US20110077230A1, “COPPER ORGANOCOMPLEXES, USE THEREOF AS ANTITUMOR MEANS AND FOR PROTECTING HEALTHY TISSUE FROM IONIZING RADIATION” (CHARITE - UNIVERSITATSMEDIZIN BERLIN, priority 2008, published 2011)
Some entries share one result that the patent states for a list of compounds.

Test system: Ehrlich ascites carcinoma (EAC) cells
Test: NADH state (fluorescence) in EAC cells
Assay type: cell-based, mice
Experimental: The Ehrlich ascites carcinoma (EAC) was obtained from white male mice of the strain MNR1 and the thymocytes from the thymus of rats of the Wistar line. Vitality of the cells was tested by vital staining using trypan blue and experiments and determined to be no less than 95% in all experiments. The NADH state in the EAC cells was assessed with reference to their fluorescence intensity. Measurement of the intracellular calcium concentration was performed according to the standard methodology of fluorescence using chlortetracycline. The membrane potential was measured using the fluorescent dye No. 1104. NADH is a source of electrons in the oxidative phosphorylation process. […] These effects are directed to inhibiting the NAD-dependent dehydrogenase. As a result, the respiratory chain in the tumor cells is inhibited.

Which “increase of the amount of endogenous NADH” value does the source give for “Copper-sarcolysine hydrochloride complex [complex A]” here?
The value was “more than 20%”.
